For the test, the target named is Purified human C9 (Homo sapiens, UniProt P02748). Briefly: ELISA: purified human C9 (0.057 µM) coated, His-tagged mortalin (0.007 µM), anti-His antibody, OD 492 nm. On the technique in general: ELISA stands for enzyme-linked immunosorbent assay.

Protein sequences, listed by entry. Tags and fused reporters are not part of them. Lines headed by an entry give the natural chain unless they say otherwise; changes in a name come on top.
UniProt P02748: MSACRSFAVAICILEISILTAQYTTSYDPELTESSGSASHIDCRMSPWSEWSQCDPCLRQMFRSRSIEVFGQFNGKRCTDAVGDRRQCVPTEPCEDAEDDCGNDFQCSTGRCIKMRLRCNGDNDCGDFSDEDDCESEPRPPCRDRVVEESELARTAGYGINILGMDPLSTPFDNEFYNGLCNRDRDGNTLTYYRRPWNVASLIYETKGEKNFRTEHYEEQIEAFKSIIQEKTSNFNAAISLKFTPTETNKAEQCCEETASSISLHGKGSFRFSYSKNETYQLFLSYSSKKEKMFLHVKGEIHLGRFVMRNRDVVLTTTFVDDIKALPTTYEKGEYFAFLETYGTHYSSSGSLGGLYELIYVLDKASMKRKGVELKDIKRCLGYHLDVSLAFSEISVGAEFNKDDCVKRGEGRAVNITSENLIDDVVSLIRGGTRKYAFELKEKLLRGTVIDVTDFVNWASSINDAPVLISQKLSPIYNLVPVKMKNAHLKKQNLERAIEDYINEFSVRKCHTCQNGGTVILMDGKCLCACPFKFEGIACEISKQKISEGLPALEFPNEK
UniProt P38646: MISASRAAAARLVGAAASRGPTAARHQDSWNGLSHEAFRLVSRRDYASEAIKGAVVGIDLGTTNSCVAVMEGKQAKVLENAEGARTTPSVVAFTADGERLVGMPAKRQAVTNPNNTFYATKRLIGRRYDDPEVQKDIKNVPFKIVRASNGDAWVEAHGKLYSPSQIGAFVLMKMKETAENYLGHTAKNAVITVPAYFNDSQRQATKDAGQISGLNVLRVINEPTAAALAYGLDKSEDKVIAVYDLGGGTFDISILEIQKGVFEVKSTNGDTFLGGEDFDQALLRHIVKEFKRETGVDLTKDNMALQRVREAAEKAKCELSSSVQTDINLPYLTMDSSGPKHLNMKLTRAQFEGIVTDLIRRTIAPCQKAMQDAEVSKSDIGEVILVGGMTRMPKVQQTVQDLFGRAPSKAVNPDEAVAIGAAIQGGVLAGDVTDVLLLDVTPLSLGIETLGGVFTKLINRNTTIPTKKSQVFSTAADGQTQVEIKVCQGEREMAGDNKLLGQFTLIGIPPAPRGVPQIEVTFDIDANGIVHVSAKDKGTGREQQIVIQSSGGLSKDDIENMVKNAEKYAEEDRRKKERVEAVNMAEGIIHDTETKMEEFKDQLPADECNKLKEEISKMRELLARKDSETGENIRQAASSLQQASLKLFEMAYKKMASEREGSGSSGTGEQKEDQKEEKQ

Results are given in words; binding and its absence hold for the method and conditions named. Some entries that bind do so weakly or less than the wild type.

Consider “His-tagged recombinant mortalin (from UniProt P38646 47-679)”, for which the binding entry is on record as “binds”.

Source of the values: patent US20170355736A1, “MORTALIN PEPTIDES AND ANTIBODIES AND USES THEREOF FOR INHIBITING MORTALIN ACTIVITY AND TREATING A DISEASE ASSOCIATED WITH A PATHOLOGICAL CELL” (Ramot at Tel-Aviv University Ltd., priority 2014, published 2017).
